For at least one compound, name, drawing or mass did not settle the structure.
Test system: tetracycline-dependent promoter (pTet-Off, pTet-On)
Test: Real time measurement of gene expression regulation with tetracycline-dependent promoter on array
Format: cell-based
Details: tetracycline-dependent versus tetracycline-independent promoter

Structure (SMILES): CN(C)[C@@H]1C(O)=C(C(N)=O)C(=O)[C@@]2(O)C(O)=C3C(=O)c4c(O)cccc4[C@@](C)(O)[C@H]3C[C@@H]12 [tetracycline]
- change in gene expression: a change in gene expression was detected only for the tetracycline-dependent promoter
